According to the supplement of paper PMC6411743:
± gives the standard deviation of the averaged measurements. The list shows a part of the results.

Target: T1, E9PNW4 and related entries (UniProt P13987)
T1 sequence (whole entry): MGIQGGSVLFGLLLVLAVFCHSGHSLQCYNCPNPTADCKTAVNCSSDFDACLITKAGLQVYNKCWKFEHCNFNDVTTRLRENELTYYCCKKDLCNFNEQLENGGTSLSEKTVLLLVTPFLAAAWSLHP
Assay: NP40-soluble protein abundance relative to vehicle (solubility fold change) (ratio); higher = more soluble protein in presence of GTP
Protocol: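 Solubility proteome profiling in Jurkat crude lysate. Lysate was treated with Mg-GTP (0.1-10 mM) for 10 min at room temperature and 3 min at 37 °C, then solubilised with 0.8% NP40 and benzonase, followed by ultracentrifugation. Proteins were quantified by TMT10 LC-MS/MS; the value is the NP40-soluble abundance relative to the NP40-processed vehicle, from 3 independent experiments.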

`Nc1nc2c(ncn2[C@@H]2O[C@H](COP(=O)(O)OP(=O)(O)OP(=O)(O)O)[C@@H](O)[C@H]2O)c(=O)[nH]1` [guanosine triphosphate] gave an NP40-soluble protein abundance (concentration: 0.1mM) of 0.823 ± 0.18, an NP40-soluble protein abundance (concentration: 0.5mM) of 0.829 ± 0.19 and an NP40-soluble protein abundance (concentration: 1mM) of 0.834 ± 0.16. It also gave an NP40-soluble protein abundance (concentration: 2mM) of 0.825 ± 0.15, an NP40-soluble protein abundance (concentration: 4mM) of 0.875 ± 0.2 and an NP40-soluble protein abundance (concentration: 6mM) of 0.871 ± 0.21. It also gave an NP40-soluble protein abundance (concentration: 8mM) of 0.825 ± 0.15 and an NP40-soluble protein abundance (concentration: 10mM) of 0.9 ± 0.2.
